The subject of the experiment is L1210 leukemia ip in BDF1 mice, survival T/C. Description: NCI In Vivo Anticancer Drug Screen. Data for tumor model L1210 Leukemia (intraperitoneal) in B6D2F1 (BDF1) mice. To be noted: higher T/C = longer survival.
Where [1] appears, read: T/C endpoint: mean survival time, dose: 200.0 mg/kg/injection, schedule: Q01DX009 (ip), vehicle: Klucel (hydroxypropylcellulose) (HPC).

Here are results for twelve compounds from PubChem BioAssay AID248 (DTP/NCI, 2004).

The list shows only some results of the screen, not a fair sample: it gathers tests that were run many times, whatever their T/C, doses with no T/C, and many T/C values between a quarter and a half above the control. Further doses and runs are listed elsewhere. T/C gives the treated animals as a percentage of the vehicle group. Some doses have a count of surviving animals in place of a T/C: the source files T/C as zero there, which appears to mark a toxic dose or a test without result, not a measured value. Some survivor counts are full or nearly so, which does not show that the dose was tolerated: the source hardly ever lists a survival T/C far under the control, and the zero likely stands for such cases as well. Counts of survivors are from the toxicity check (mostly the fifth day) where no day follows; animals may have died later. Schedule codes are those of the source, read here as Q, the interval in days (D) or hours (H), X, the number of doses. Some schedule codes hold Z or #, which are not explained here. For survival time, the PubChem record calls one and a half times the control and up active, and a quarter to a half above the control has no call in these data; cut-offs in other NCI protocols can differ. Some T/C values carry the count of animals alive at the toxicity check (mostly the fifth day); without a count, all were alive then.

With `O=C(Nc1cccc(F)c1)Nc1cc([N+](=O)[O-])ccc1Cl`, under setting [1], the survivor count is listed as 6 of 6.
As to `O=C(C=C(C(F)(F)F)C(F)(F)F)c1ccc(F)cc1`, the survivor count runs as follows: (T/C endpoint: mean survival time, dose: 50.0 mg/kg/injection, schedule: Q04DX003 (ip), vehicle: other) 2 of 6; (T/C endpoint: mean survival time, dose: 100.0 mg/kg/injection, schedule: Q04DX003 (ip), vehicle: other) 0 of 6.
In the case of `CN(Cc1cnc2nc(N)nc(N)c2n1)c1ccc(C(=O)NC(CCC(=O)O)C(=O)O)cc1F` (stereo not given), the T/C (T/C endpoint: median survival time, dose: 0.31 mg/kg/injection, schedule: Q01DX009 (ip), vehicle: other) is 144 % of control; the T/C (T/C endpoint: median survival time, dose: 0.62 mg/kg/injection, schedule: Q01DX009 (ip), vehicle: other) is 133 % of control; the T/C (T/C endpoint: median survival time, dose: 5.0 mg/kg/injection, schedule: Q01DX009 (ip), vehicle: other) is 144 % of control. The survivor count (T/C endpoint: median survival time, dose: 10.0 mg/kg/injection, schedule: Q01DX009 (ip), vehicle: other) is reported as 7 of 8.
On to `CCCCN(CCCCS(=O)(=O)O)c1ccc(N=Nc2cc(Cl)ccc2Cl)cc1`, for which the survivor count (T/C endpoint: mean survival time, dose: 400.0 mg/kg/injection, schedule: Q04DX003 (ip), vehicle: Klucel (hydroxypropylcellulose) (HPC)) is 1 of 6.
Take `O=[N+]([O-])c1cccc(Cl)c1F`: the survivor count (T/C endpoint: mean survival time, dose: 400.0 mg/kg/injection, schedule: Q04DX002 (ip), vehicle: Klucel (hydroxypropylcellulose) (HPC)) was 0 of 3.
As to `Cc1c(CN(C)C)cccc1C(=O)Nc1ccccc1`, the survivor count (T/C endpoint: mean survival time, dose: 400.0 mg/kg/injection, schedule: Q01DX001 (ip), vehicle: saline) is 2 of 4.
With `CC(C)c1nc2c(=O)[nH]cnc2o1`, the survivor count (T/C endpoint: mean survival time, dose: 50.0 mg/kg/injection, schedule: Q01DX005 (ip), vehicle: saline) is reported as 1 of 3 and the survivor count (T/C endpoint: mean survival time, dose: 400.0 mg/kg/injection, schedule: Q01DX005 (ip), vehicle: saline) is listed as 1 of 3.
On to `CC(C)=CCC/C(C)=C/Cn1ccccc1=O`, for which, under “T/C endpoint: mean survival time, dose: 400.0 mg/kg/injection, schedule: Q01DX001 (ip), vehicle: saline with Tween-80”, the survivor count was 2 of 6.
Regarding `Cc1cc2c(cc1C)NC(=O)CC(=O)N2`, the survivor count under setting [1] is on record as 6 of 6 and the survivor count (T/C endpoint: mean survival time, dose: 400.0 mg/kg/injection, schedule: Q01DX009 (ip), vehicle: Klucel (hydroxypropylcellulose) (HPC)) was 6 of 6.
As to `c1cc(CCCc2ccncc2)ccn1`, the survivor count is 2 of 3 (T/C endpoint: mean survival time, dose: 100.0 mg/kg/injection, schedule: Q04DX002 (ip), vehicle: saline); 2 of 3 (T/C endpoint: mean survival time, dose: 200.0 mg/kg/injection, schedule: Q04DX002 (ip), vehicle: saline); 0 of 3 (T/C endpoint: mean survival time, dose: 400.0 mg/kg/injection, schedule: Q04DX002 (ip), vehicle: saline).
Regarding `COC(COC(N)=O)C1=C(N2CC2)C(=O)C(C)=C(N2CC2)C1=O` (stereo not given), the T/C (T/C endpoint: mean survival time, dose: 0.12 mg/kg/injection, schedule: Q01DX009 (ip), vehicle: saline) is 137 % of control; the T/C (T/C endpoint: mean survival time, dose: 0.25 mg/kg/injection, schedule: Q01DX009 (ip), vehicle: saline) was 146 % of control; the T/C (T/C endpoint: mean survival time, dose: 0.5 mg/kg/injection, schedule: Q01DX001 (ip), vehicle: saline with Tween-80) is 145 % of control; the T/C (T/C endpoint: mean survival time, dose: 0.5 mg/kg/injection, schedule: Q01DX001 (ip), vehicle: saline) is 140 % of control; the T/C (T/C endpoint: mean survival time, dose: 1.0 mg/kg/injection, schedule: Q04DX003 (ip), vehicle: Klucel (hydroxypropylcellulose) (HPC)) was 145 % of control; the T/C (T/C endpoint: median survival time, dose: 4.0 mg/kg/injection, schedule: Q01DX001 (ip), vehicle: saline, evaluated on day 8) was 145 % of control. Moreover, the T/C (T/C endpoint: median survival time, dose: 4.0 mg/kg/injection, schedule: Q01DX001 (ip), vehicle: saline, evaluated on day 30) is 145 % of control [7 of 8 alive]. The survivor count is recorded as 3 of 10 (T/C endpoint: mean survival time, dose: 0.5 mg/kg/injection, schedule: Q01DX009 (ip), vehicle: Klucel (hydroxypropylcellulose) (HPC)); 5 of 10 (T/C endpoint: mean survival time, dose: 1.0 mg/kg/injection, schedule: Q01DX009 (ip), vehicle: Klucel (hydroxypropylcellulose) (HPC)); 9 of 10 (T/C endpoint: mean survival time, dose: 2.0 mg/kg/injection, schedule: Q01DX009 (ip), vehicle: saline); 6 of 6 (T/C endpoint: mean survival time, dose: 2.0 mg/kg/injection, schedule: Q01DX Z (ip), vehicle: saline); 5 of 10 (T/C endpoint: mean survival time, dose: 4.0 mg/kg/injection, schedule: Q01DX001 (ip), vehicle: saline); 10 of 10 (T/C endpoint: mean survival time, dose: 4.0 mg/kg/injection, schedule: Q01DX009 (ip), vehicle: Klucel (hydroxypropylcellulose) (HPC)). In addition, the survivor count runs as follows: (T/C endpoint: mean survival time, dose: 4.0 mg/kg/injection, schedule: Q04DX003 (ip), vehicle: Klucel (hydroxypropylcellulose) (HPC)) 5 of 10; (T/C endpoint: mean survival time, dose: 4.0 mg/kg/injection, schedule: Q04DX003 (ip), vehicle: saline) 7 of 10; (T/C endpoint: mean survival time, dose: 4.0 mg/kg/injection, schedule: Q08DX002 (ip), vehicle: saline) 8 of 10; (T/C endpoint: mean survival time, dose: 8.0 mg/kg/injection, schedule: Q01DX001 (ip), vehicle: saline with Tween-80) 10 of 10; (T/C endpoint: mean survival time, dose: 8.0 mg/kg/injection, schedule: Q01DX001 (ip), vehicle: saline) 9 of 10; (T/C endpoint: mean survival time, dose: 8.0 mg/kg/injection, schedule: Q04DX003 (ip), vehicle: Klucel (hydroxypropylcellulose) (HPC)) 8 of 10. The survivor count runs as follows: (T/C endpoint: mean survival time, dose: 8.0 mg/kg/injection, schedule: Q04DX003 (ip), vehicle: saline) 10 of 10; (T/C endpoint: mean survival time, dose: 8.0 mg/kg/injection, schedule: Q08DX002 (ip), vehicle: saline) 10 of 10.
For the compound `Cn1c(=O)[nH]c(=O)c2[nH]c(CO)nc21`, the survivor count (T/C endpoint: mean survival time, dose: 400.0 mg/kg/injection, schedule: Q01DX001 (ip), vehicle: carboxymethylcellulose (CMC)) is 4 of 4.
